Measurements as given in PMC10872542 (Structure (London, England : 1993), 2023).

By UniProt entry, the sequences of proteins in these tests, tags left out.
UniProt Q9XSM3, whole entry F472A: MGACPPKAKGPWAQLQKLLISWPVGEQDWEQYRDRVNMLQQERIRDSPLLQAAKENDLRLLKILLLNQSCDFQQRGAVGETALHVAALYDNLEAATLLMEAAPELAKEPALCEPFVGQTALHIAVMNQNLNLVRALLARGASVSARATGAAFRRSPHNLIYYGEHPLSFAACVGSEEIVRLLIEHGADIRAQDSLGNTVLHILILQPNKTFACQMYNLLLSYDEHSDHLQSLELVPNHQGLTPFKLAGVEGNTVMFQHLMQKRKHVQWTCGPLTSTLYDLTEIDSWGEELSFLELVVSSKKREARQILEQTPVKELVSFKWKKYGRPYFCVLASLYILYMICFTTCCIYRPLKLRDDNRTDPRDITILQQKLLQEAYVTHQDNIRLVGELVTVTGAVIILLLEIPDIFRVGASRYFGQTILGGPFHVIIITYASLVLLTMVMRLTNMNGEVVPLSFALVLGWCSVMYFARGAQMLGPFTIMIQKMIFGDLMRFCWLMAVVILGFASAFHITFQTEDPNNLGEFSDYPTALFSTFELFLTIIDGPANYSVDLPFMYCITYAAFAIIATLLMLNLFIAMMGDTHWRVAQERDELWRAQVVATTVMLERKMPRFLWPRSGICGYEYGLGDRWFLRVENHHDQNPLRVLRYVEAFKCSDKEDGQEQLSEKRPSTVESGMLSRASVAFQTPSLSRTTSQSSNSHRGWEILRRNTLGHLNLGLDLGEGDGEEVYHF
UniProt Q9XSM3, whole entry L475A: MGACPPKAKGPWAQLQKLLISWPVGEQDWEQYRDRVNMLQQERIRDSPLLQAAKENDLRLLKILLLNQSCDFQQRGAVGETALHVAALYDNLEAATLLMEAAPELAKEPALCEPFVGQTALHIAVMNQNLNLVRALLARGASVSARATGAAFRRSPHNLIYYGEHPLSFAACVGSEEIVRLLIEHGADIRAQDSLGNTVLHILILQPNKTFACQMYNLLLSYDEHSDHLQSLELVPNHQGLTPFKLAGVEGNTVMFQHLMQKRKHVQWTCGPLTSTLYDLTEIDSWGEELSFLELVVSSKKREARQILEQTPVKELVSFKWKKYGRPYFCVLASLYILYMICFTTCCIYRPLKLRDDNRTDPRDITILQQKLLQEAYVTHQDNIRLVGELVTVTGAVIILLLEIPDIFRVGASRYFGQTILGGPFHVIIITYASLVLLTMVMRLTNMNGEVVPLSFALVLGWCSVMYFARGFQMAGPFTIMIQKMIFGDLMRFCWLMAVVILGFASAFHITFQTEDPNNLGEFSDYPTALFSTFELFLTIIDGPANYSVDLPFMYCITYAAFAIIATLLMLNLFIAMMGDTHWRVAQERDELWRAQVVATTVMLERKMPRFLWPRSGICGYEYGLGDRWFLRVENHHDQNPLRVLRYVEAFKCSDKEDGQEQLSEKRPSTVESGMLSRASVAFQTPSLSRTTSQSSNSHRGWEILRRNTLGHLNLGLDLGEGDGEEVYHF

Experiments:
[1] = molecular target: rbTRPV5 F472A mutant (Oryctolagus cuniculus, UniProt Q9XSM3, F472A); test: cell-based
[2] = test system: TRPV5; settings: read-out: IC50 of TRPV5 inhibition; cited from earlier work
[3] = molecular target: wild-type rbTRPV5 (Oryctolagus cuniculus, UniProt Q9XSM3); test: cell-based
[4] = molecular target: rbTRPV5 L475A mutant (Oryctolagus cuniculus, UniProt Q9XSM3, L475A); test: cell-based

| IC50 [1] | IC50 [3] | IC50 [4] | SMILES | IC50 [2] |
| --- | --- | --- | --- | --- |
| > 30 µM | 13 ± 2 µM | > 30 µM | Clc1ccc(COC(Cn2ccnc2)c2ccc(Cl)cc2Cl)cc1 (centres unmarked) [econazole] | 1.3 to 2 µM |
|  |  |  | Clc1ccc(COC(Cn2ccnc2)c2ccc(Cl)cc2Cl)c(Cl)c1 (centres unmarked) [miconazole] | ~1.7 µM |
